Measured values as given in the supplement of paper PMC8858631.
Where a name gives a salt, the structure may show the parent alone. The list shows a part of the results. Cut-off read from the data, not from the text of the source: active = 0.5 or less and inactive = the rest. Many values rest on one well or one pass, so single values are uncertain.

Tested on: SK-MEL-28
Test: EEF2K protein level normalised to actin (western blot) after treatment (ratio (EEF2K/Actin)); higher = more EEF2K protein remaining (less EEF2K suppression)
Settings: 5 µM; 24 h

Row | Structure (SMILES) | EEF2K protein level normalised to actin
1 | CCN1CCN(Cc2ccc(Nc3ncc(F)c(-c4cc(F)c5nc(C)n(C(C)C)c5c4)n3)nc2)CC1 [Abemaciclib] | inactive: 1.05
2 | CC[C@@]1(O)C(=O)OCc2c1cc1n(c2=O)Cc2cc3c(CN(C)C)c(O)ccc3nc2-1 [Topotecan HCl] | inactive: 5.93
3 | C[C@H](Nc1ncnc2nc[nH]c12)c1cc2cccc(Cl)c2c(=O)n1-c1ccccc1 [Duvelisib (IPI-145, INK1197)] | inactive: 1.57
4 | Cn1nnc2c(C(N)=O)ncn2c1=O [Temozolomide] | inactive: 0.84
5 | NC(=O)c1cccc2cn(-c3ccc([C@@H]4CCCNC4)cc3)nc12 [Niraparib (MK-4827) tosylate] | inactive: 1.31
6 | COc1cc2ncnc(Nc3ccc(F)c(Cl)c3)c2cc1OCCCN1CCOCC1 [Gefitinib hydrochloride] | inactive: 1.21
